# In the supplement of paper PMC7830784:
# Where a name gives a salt, the structure may show the parent alone. The list shows a part of the results. Single values are uncertain here, since repeats match poorly.
# System: Brugia pahangi adult female
# Experiment: motility inhibition on day 3 relative to DMSO vehicle; higher = more active
# Details: 10 µM; 3 days
row,Structure (SMILES),motility inhibition on day 3 [%]
1,CN(C)C(=O)Oc1cc(OC(=O)N(C)C)cc(C(O)CNC(C)(C)C)c1 (stereo not given) [bambuterol hydrochloride],0.26
2,C[N+]1(C)[C@@H]2C[C@@H](OC(=O)[C@H](CO)c3ccccc3)C[C@H]1[C@@H]1O[C@@H]12 [methscopolamine bromide],12.4
3,C[N+]1(C)[C@@H]2C[C@@H](OC(=O)[C@H](CO)c3ccccc3)C[C@H]1[C@@H]1O[C@@H]12 [Scopolamine Methyl Bromide],34.4
4,CCn1cc(C(=O)O)c(=O)c2cc3c(cc21)OCO3 [oxolinic acid],22.6
5,CCN(C)C(=O)Oc1cccc([C@H](C)N(C)C)c1 [rivastigmine tartrate],9.42
6,COC(=O)C1=CCCN(C)C1 [Arecoline hydrobromide],33.8
7,COc1cc2c(cc1OC)[C@@]13CCN4CC5=CCO[C@H]6CC(=O)N2[C@H]1[C@H]6[C@H]5C[C@H]43 [brucine],0.779
8,CC(C)(C)NCC(O)c1cc(Cl)c(N)c(Cl)c1 (stereo not given) [clenbuterol hydrochloride],8.32
9,O=C(NC(=O)c1c(F)cccc1F)Nc1cc(Cl)c(OC(F)(F)C(F)C(F)(F)F)cc1Cl (stereo not given) [lufenuron],56
10,CNCC(=O)c1ccc(O)c(O)c1 [adrenolone hydrochloride],8.74
11,COc1ccc(Cc2nccc3cc(OC)c(OC)cc23)cc1OC [Papaverine hydrochloride],10.9
12,CCC1(CC)C(=O)C=CNC1=O [pyrithyldione],18.1
13,C[C@]12CC[C@H]3[C@@H](CC[C@@]45O[C@@H]4C(O)=C(C#N)C[C@]35C)[C@@H]1CC[C@@H]2O [trilostane],< 0
14,O=C(N/N=C/c1ccc([N+](=O)[O-])o1)c1cc([N+](=O)[O-])cc([N+](=O)[O-])c1O [nifursol],15
15,Oc1cc(Cl)ccc1Oc1ccc(Cl)cc1Cl [triclosan],35.7
16,CC1(C)C(C=C(Cl)Cl)C1C(=O)OC(C#N)c1cccc(Oc2ccccc2)c1 (stereo not given) [cypermethrin],13.1
17,O=C1CN=C(c2ccccn2)c2cc(Br)ccc2N1 [Bromazepam],0.612
18,Cc1nnc2n1-c1ccc(Cl)cc1C(c1ccccc1Cl)=NC2 [Triazolam],12.6
19,COc1ccc(CCN2CCC(Nc3nc4ccccc4n3Cc3ccc(F)cc3)CC2)cc1 [astemizole],25.9
20,CC(=O)O[C@H]1C[C@H](O[C@H]2[C@@H](O)C[C@H](O[C@H]3[C@@H](O)C[C@H](O[C@H]4CC[C@@]5(C)[C@H](CC[C@@H]6[C@@H]5C[C@@H](O)[C@]5(C)[C@@H](C7=CC(=O)OC7)CC[C@]65O)C4)O[C@@H]3C)O[C@@H]2C)O[C@H](C)[C@H]1O[C@@H]1O[C@H](CO)[C@@H](O)[C@H](O)[C@H]1O [lanatoside c],8.55
21,O=C1CN=C(c2ccccc2)c2cc(Cl)ccc2N1CC1CC1 [Prazepam],19.3
22,CC(C)C[C@H](CN)CC(=O)O [pregabalin],4.67
23,CN(C)C(=S)SSC(=S)N(C)C [thiram],58.9
24,CCC(C)(C)O [amylene hydrate],32.9
25,CC(C)(C)NCC(O)c1ccccc1Cl (stereo not given) [tulobuterol],< 0

# Random excerpt: 4 records from the list.
row,Structure (SMILES),motility inhibition on day 3 [%]
13,C[C@]12CC[C@H]3[C@@H](CC[C@@]45O[C@@H]4C(O)=C(C#N)C[C@]35C)[C@@H]1CC[C@@H]2O [trilostane],< 0
23,CN(C)C(=S)SSC(=S)N(C)C [thiram],58.9
21,O=C1CN=C(c2ccccc2)c2cc(Cl)ccc2N1CC1CC1 [Prazepam],19.3
22,CC(C)C[C@H](CN)CC(=O)O [pregabalin],4.67

# (listing goes on)

row,Structure (SMILES),motility inhibition on day 3 [%]
1,C[C@]12Cc3c[nH]nc3C[C@@H]1CC[C@@H]1[C@@H]2CC[C@@]2(C)[C@H]1CC[C@]2(C)O [Stanozolol],9.85
2,C[N+]12CCC(CC1)C(OC(=O)C(O)(c1ccccc1)c1ccccc1)C2 (stereo not given) [clidinium bromide],< 0
3,OC[C@@H](O)[C@H]1O[C@@H]2O[C@H](C(Cl)(Cl)Cl)O[C@@H]2[C@H]1O [chloralose],14.2
4,CC(=O)[C@H]1CC[C@H]2[C@@H]3CC[C@@H]4C[C@H](O)CC[C@]4(C)[C@H]3CC[C@]12C [eltanolone],< 0
5,CC(CC(C(N)=O)(c1ccccc1)c1ccccc1)N(C)C (stereo not given) [aminopentamide sulfate],11.3
6,COC(=O)C(c1ccccc1)C1CCCCN1 (stereo not given) [methylphenidate hydrochloride],3.57
7,CO[C@]12C[C@@H](COC(=O)c3cncc(Br)c3)CN(C)[C@@H]1Cc1cn(C)c3cccc2c13 [nicergoline],10.6
8,O=[N+]([O-])c1ccc([As](=O)(O)O)cc1 [nitarsone],29.1
9,"CNC(C)[C@H](O)c1ccccc1 (stereo not given in full) [ephedrine (1r,2s) hydrochloride]",< 0
10,CCN(C(C)=O)c1cccc(-c2ccnc3c(C#N)cnn23)c1 [zaleplon],27
11,CC1(C)C(C=C(Cl)Cl)C1C(=O)OCc1cccc(Oc2ccccc2)c1 (stereo not given) [permethrin],8.45
12,CCNC1(c2cccs2)CCCCC1=O (stereo not given) [tiletamine hydrochloride],7.4
13,Cc1ccc(O)cc1.Cc1cccc(O)c1.Cc1ccccc1O [cresol],15.8
14,CC[C@H]1[C@@H]2C[C@H]3[C@@H]4N(C)c5ccccc5[C@]45C[C@@H]([C@@H]2[C@H]5O)N3[C@@H]1O [ajmaline],< 0
15,C[C@@H]1CC[C@H]2[C@@H](C)C(=O)O[C@@H]3O[C@@]4(C)CC[C@@H]1[C@]32OO4 [artemisinin],16.1
16,CNC(C)C(O)c1ccccc1 (stereo not given) [racephedrine hydrochloride],< 0
17,CC[C@H]1CN2CCc3cc(OC)c(OC)cc3[C@@H]2C[C@@H]1C[C@H]1NCCc2cc(OC)c(OC)cc21 [emetine],< 0
18,COc1cc([C@@H]2c3cc4c(cc3[C@H](O)[C@H]3COC(=O)[C@H]23)OCO4)cc(OC)c1OC [podofilox],0.537
19,Cc1cccc(C)c1NC1=NCCCS1 [Xylazine hydrochloride],15
20,CC(=O)OCC1=C(C(=O)O)N2C(=O)[C@@H](NC(=O)CCC[C@@H](N)C(=O)O)[C@H]2SC1 [cephalosporin c sodium],14.1
21,NC(=O)C[S+]([O-])C(c1ccccc1)c1ccccc1 (stereo not given) [modafinil],38.7
22,CCC1(CCC(C)C)C(=O)NC(=O)N=C1O (stereo not given),4.3
23,C[C@@H](CO)NC(=O)[C@@H]1C=C2c3cccc4[nH]cc(c34)C[C@H]2N(C)C1 [ergonovine maleate],< 0
24,Clc1ccc(C(OCCN2CCCCC2)c2ccccc2)cc1 (stereo not given) [cloperastine hydrochloride],5.57
25,O=c1[nH]c(=O)n(Cl)c(=O)n1Cl [troclosene potassium],14

row,Structure (SMILES),motility inhibition on day 3 [%]
1,NC(=O)CN1CCCC1=O [piracetam],9.24
2,C=CCN1C[C@H](C(=O)N(CCCN(C)C)C(=O)NCC)C[C@@H]2c3cccc4[nH]cc(c34)C[C@H]21 [Cabergoline],12.8
3,O=P1(NCCCl)OCCCN1CCCl (stereo not given) [ifosfamide],12.6
4,CC(C)c1c(CN(C)C(C)Cc2ccccc2)n(C)n(-c2ccccc2)c1=O (stereo not given) [famprofazone],0.96
5,Oc1ccc(Cl)cc1 [parachlorophenol],3.24
6,CCCCCCCCC(=O)NCc1ccc(O)c(OC)c1 [N-Vanillylnonanamide],23.4
7,CN1C(=O)C(O)N=C(c2ccccc2)c2cc(Cl)ccc21 (stereo not given) [Temazepam],12.7
8,Nc1ccc([As](=O)(O)O)cc1 [arsanilic acid],1.24
9,NCCCNCCSP(=O)(O)O [amifostine],< 0
10,O=[N+]([O-])OCC(CO[N+](=O)[O-])O[N+](=O)[O-] [nitroglycerin],2.36
11,C#CCN(C)[C@H](C)Cc1ccccc1 [selegiline hydrochloride],24.7
12,C#CCN(C)[C@H](C)Cc1ccccc1 [R(-)-Deprenyl hydrochloride],< 0
13,CN(C)C(=O)Oc1ccc[n+](C)c1 [Pyridostigmine bromide],32.9
14,C[C@@H]1O[C@@H](O[C@@H]2C=C3CC[C@@H]4[C@H](CC[C@]5(C)[C@@H](c6ccc(=O)oc6)CC[C@]45O)[C@@]3(C)CC2)[C@H](O)[C@H](O)[C@H]1O [proscillaridin],87.9
15,CC(=O)Nc1cc([As](=O)(O)O)ccc1O [acetarsol],19.7
16,CC(=O)[O][Hg][c]1ccccc1 [phenylmercuric acetate],99.4
17,O=c1[nH]c2ccccc2n1C1CCN(CCCC(c2ccc(F)cc2)c2ccc(F)cc2)CC1 [Pimozide],96
18,CN1CCc2cc3c(cc2C1O)OCO3 (stereo not given) [hydrastinine hydrochloride],6.34
19,NP(N)(=O)NC(=O)c1ccc(F)cc1 [flurofamide],2.47
20,CNC(=O)Oc1ccc2c(c1)[C@]1(C)CCN(C)[C@@H]1N2C [(-)-Physostigmine],47.1
21,CN1[C@H]2C[C@H](OC(=O)[C@H](CO)c3ccccc3)C[C@@H]1[C@@H](O)C2 [anisodamine hydrobromide],< 0
22,CN(C)C(=O)Oc1cccc([N+](C)(C)C)c1 [Neostigmine bromide],< 0
23,COc1ccc(C(CN(C)C)C2(O)CCCCC2)cc1 (stereo not given) [venlafaxine hydrochloride],12
24,C[C@H](N)[C@H](O)c1ccccc1 [L(-)-Norephedrine],0.783
25,CC(C)C[C@H]1C(=O)N2CCC[C@H]2[C@]2(O)O[C@](NC(=O)[C@@H]3C[C@@H]4c5cccc6[nH]cc(c56)C[C@H]4N(C)C3)(C(C)C)C(=O)N12.CC(C)[C@@]1(NC(=O)[C@@H]2C[C@@H]3c4cccc5[nH]cc(c45)C[C@H]3N(C)C2)O[C@@]2(O)[C@@H]3CCCN3C(=O)[C@H](Cc3ccccc3)N2C1=O.CC(C)[C@H]1C(=O)N2CCC[C@H]2[C@]2(O)O[C@](NC(=O)[C@@H]3C[C@@H]4c5cccc6[nH]cc(c56)C[C@H]4N(C)C3)(C(C)C)C(=O)N12.CCC(C)[C@H]1C(=O)N2CCC[C@H]2[C@]2(O)O[C@](NC(=O)[C@@H]3C[C@@H]4c5cccc6[nH]cc(c56)C[C@H]4N(C)C3)(C(C)C)C(=O)N12 [Ergoloid Mesylates],11.6
